The values that follow come from publication PMC9549296.

What all share (experiment): two-hybrid; yeast strain Y2HGold; ORFs in PGBKT7, ATP synthase subunits in pGADT7; cotransformants on SD/-Leu/-Trp, serial dilutions on SD/-Leu/-Trp/-His-Ade, 30°C, 3-5 days
In experiment [1] the target is ORF222a protein (B. oleracea var. capitata (C5-type CMS line; cytoplasm derived from B. napus)) (UniProt Q6YSS0).
The target of experiment [2] is ORF188a protein (B. oleracea var. capitata (C5-type CMS line; cytoplasm derived from B. napus)).
The target of experiment [3] is ORF261a protein (B. oleracea var. capitata (C5-type CMS line; cytoplasm derived from B. napus)).

No constants are given. Whether binding was seen depends on the method and setting. For some of these results: Binding can be weak; no strength is given.

“ATP17 homolog ATP17-2 (Bo7g114140) (from UniProt A0A0D3DGW6)”: in experiment [1], the binding entry is “binds”.

B1: ATP4 (F1F0-ATP synthase subunit b) (protein, UniProt G4XYF7 1-192)
chain: MRLSSTNMDARKMLFAAILSICALSSKKISIYNEEMIVALCFIGFIIFSRKSLGTTFKATLDGRIQAIQEESQQFPNPNEVVPPESNEQQRLLRISLRICGTVVESLPMARCAPKCEKTVQALLCRNLNVKSATLTNATSSRRIRFQDDLVTKFYTLVGNQFAYSSISKAERVEFIRESLVVLRMVRGGGFS
In the case of B1, the binding entry in experiment [2], in experiment [1] and in experiment [3] was “no binding” each time.

B2: ATP8 (F1F0-ATP synthase subunit 8) (protein, UniProt G4XYH7 1-158)
chain: MPQLDKFTYFSQFFWLCLFFFTFYIFICNDGDGVLGISRILKLRNQLLSHRGKTIQSKDPNSLEDLLRKGFSTGVSYMYASLFEVSQWCKAVDLLGKRRKITLISCFGEISGSRGMERNILYNISKSSPSNTGRWITCRNCRNDIMLIHVVHGQGSIK
In the case of B2, the binding result in experiment [2], in experiment [1] and in experiment [3] was “no binding” each time.

B3: ATP6 (F1F0-ATP synthase subunit a) (protein, UniProt G4XYF6 1-261)
chain: MNQIGLVAQSPLDQFEIVPLIPMNIGNFYFSFTNPSLFMLLTLSFFLLLIHFITKKGGGNLVPNAWQSLVELLYDFVLNLVKEQIGGLSGNVKQMFFPCILVTFLFLLFCNLQGMIPYSFTVTSHFLITLALSFSIFIGITIVGFQRHGLHFFSFLLPAGVPLPLAPFLVLLELISYCFRALSLGIRLFANMMAGHSLVKILSGFAWTMLCMNEIFYFIGALGPLFIVLALTGLELGVAILQAYVFTILICIYLNDAINLH
With B3, the binding result in experiment [2], in experiment [1] and in experiment [3] was “no binding” each time.
